Measurements reported in patent publication US20190247398A1, “FORMULATIONS OF A MACROCYCLIC TRK KINASE INHIBITOR” (Array BioPharma Inc., priority 2017, published 2019).
For at least one compound, name, drawing or mass did not settle the structure.

What was measured:
[1] = Dynamic vapor sorption (DVS); assay type: physicochemical
Method: Approximately, 10 mg of sample was placed into a mesh vapor sorption balance pan and loaded into a DVS-1 dynamic vapor sorption balance by Surface Measurement Systems. The sample was subjected to a ramping profile from 40-90% relative humidity (RH) at 10% increments, maintaining the sample at each step until a stable weight had been achieved (99.5% step completion). After completion of the sorption cycle, the sample was dried using the same procedure to 0% RH and then a second sorption cycle back to 40% RH. The weight change during the sorption/desorption cycles were plotted, allowing for the hygroscopic nature of the sample to be determined. XRPD analysis was then carried out on any solid retained.

[2] = Gravimetric vapor sorption (GVS); assay type: physicochemical; conditions: at 90% RH
Method: Approximately 10-20 mg of sample was placed into a mesh vapor sorption balance pan and loaded into an IGASorp Moisture Sorption Analyzer balance by Hiden Analytical. […] After completion of the sorption cycle, the sample was dried using the same procedure to 0% RH, and finally taken back to the starting point of 40% RH. The weight change during the sorption/desorption cycles were plotted, allowing for the hygroscopic nature of the sample to be determined.

## C[C@@H]1CCc2ncc(F)cc2[C@H]2CCCN2c2ccn3ncc(c3n2)C(=O)N1 [Compound 1, (6R,15R)-9-fluoro-15-methyl-2,11,16,20,21,24-hexaazapentacyclo[16.5.2.0^2,6.0^7,12.0^21,25]pentacosa-1 (24),7,9,11,18(25), 19,22-heptaen-17-one]
[1]; DVS humidity conditions
  hygroscopicity by DVS (in words): slight hygroscopicity
[1]; after DVS cycle
  change in crystalline form after exposure to DVS conditions (post-DVS XRPD): no change in crystalline form
[1]; at 90% RH
  mass uptake (DVS): about 0.7%
[2]
  mass uptake (GVS): about 0.3%
